These are yes or no findings as the source states them, for the method shown. Binding seen in cells or lysates may run through a third protein. Some entries that bind do so weakly or less than the wild type. For some of these results: Sequences can lack the tags named with a protein.
Columns and labels:
[1] = target: GluN2B-containing NMDAR (HA-GluN1 co-expressed with GluN2B) (UniProt P35439); experiment: co-IP; GluN1 immunoprecipitated with anti-GluN1 from lysates of HEK293T cells co-transfected with GluN1, GluN2B and a FLAG-tagged Eph receptor; blot for FLAG or EphB2
[2] = target: FLAG-tagged EphB1 Y502F (UniProt Q8CBF3); experiment: co-IP; FLAG-tagged Eph receptor immunoprecipitated (anti-FLAG or anti-EphB2) from lysates of HEK293T cells co-transfected with HA-GluN1 and GluN2B; blot for HA or GluN1
[3] = target: FLAG-tagged EphB1 Y502E (UniProt Q8CBF3); experiment: as above
[4] = target: T1, FLAG-tagged EphA8 (UniProt O09127); experiment: as above
T1 sequence: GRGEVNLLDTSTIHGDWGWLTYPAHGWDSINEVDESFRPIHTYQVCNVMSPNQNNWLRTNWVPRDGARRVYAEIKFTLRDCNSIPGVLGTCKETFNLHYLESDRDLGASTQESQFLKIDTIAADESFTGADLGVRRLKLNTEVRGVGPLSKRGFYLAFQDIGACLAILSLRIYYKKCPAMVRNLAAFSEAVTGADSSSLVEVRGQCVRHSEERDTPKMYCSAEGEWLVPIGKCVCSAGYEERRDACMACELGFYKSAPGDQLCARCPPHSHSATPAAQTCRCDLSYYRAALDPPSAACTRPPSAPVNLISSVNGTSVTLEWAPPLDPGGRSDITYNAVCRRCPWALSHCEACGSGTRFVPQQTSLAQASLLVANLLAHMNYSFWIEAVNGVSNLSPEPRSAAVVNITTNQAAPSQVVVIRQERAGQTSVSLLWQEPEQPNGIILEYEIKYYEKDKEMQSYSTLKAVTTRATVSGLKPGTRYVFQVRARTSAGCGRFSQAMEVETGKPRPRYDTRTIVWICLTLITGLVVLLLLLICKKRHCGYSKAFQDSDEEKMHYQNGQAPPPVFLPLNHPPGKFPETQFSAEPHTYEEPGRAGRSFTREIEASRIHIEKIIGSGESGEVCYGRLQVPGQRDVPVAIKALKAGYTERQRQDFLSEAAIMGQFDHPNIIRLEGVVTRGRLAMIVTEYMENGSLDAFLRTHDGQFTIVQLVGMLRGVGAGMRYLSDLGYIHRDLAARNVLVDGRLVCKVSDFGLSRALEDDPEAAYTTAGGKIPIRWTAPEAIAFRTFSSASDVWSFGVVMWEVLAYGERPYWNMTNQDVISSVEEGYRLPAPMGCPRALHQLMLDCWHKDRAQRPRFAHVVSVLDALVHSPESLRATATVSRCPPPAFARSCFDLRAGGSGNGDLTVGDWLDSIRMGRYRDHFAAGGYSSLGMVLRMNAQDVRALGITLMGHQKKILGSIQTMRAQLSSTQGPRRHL

Amino acid sequences for entries named in this document (tags omitted). A change or cut given only in a name is not applied to a line headed by its entry. Chains listed by the source or under a name are the forms on record and can include a tag or linker. Residues count along the entry.
FLAG-tagged EphB1 wild type (Q8CBF3, residues 18-984): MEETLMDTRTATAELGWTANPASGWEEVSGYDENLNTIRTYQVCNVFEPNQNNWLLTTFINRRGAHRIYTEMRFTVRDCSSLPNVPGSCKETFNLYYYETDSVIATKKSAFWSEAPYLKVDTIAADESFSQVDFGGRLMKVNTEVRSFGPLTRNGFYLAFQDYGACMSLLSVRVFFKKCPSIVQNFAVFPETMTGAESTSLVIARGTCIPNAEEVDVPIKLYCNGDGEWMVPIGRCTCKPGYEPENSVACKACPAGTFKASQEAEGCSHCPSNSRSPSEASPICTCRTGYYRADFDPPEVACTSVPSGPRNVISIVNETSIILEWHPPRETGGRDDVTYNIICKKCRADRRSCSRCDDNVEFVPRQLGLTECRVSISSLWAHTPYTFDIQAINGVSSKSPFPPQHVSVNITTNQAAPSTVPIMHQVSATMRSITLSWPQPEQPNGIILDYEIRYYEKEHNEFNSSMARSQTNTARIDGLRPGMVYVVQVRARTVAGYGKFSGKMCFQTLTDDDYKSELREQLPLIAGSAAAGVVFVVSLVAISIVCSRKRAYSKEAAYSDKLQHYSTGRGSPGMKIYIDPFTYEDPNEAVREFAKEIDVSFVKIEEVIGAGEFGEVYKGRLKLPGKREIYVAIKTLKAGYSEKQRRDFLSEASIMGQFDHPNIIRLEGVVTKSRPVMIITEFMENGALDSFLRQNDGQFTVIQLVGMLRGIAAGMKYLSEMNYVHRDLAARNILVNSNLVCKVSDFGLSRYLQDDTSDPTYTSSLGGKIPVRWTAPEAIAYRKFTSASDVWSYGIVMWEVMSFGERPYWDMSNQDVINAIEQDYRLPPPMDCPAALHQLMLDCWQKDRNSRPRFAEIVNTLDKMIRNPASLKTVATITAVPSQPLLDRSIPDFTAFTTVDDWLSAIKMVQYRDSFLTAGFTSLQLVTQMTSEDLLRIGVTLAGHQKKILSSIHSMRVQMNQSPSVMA
FLAG-tagged EphB1 Y502F (Q8CBF3, form named): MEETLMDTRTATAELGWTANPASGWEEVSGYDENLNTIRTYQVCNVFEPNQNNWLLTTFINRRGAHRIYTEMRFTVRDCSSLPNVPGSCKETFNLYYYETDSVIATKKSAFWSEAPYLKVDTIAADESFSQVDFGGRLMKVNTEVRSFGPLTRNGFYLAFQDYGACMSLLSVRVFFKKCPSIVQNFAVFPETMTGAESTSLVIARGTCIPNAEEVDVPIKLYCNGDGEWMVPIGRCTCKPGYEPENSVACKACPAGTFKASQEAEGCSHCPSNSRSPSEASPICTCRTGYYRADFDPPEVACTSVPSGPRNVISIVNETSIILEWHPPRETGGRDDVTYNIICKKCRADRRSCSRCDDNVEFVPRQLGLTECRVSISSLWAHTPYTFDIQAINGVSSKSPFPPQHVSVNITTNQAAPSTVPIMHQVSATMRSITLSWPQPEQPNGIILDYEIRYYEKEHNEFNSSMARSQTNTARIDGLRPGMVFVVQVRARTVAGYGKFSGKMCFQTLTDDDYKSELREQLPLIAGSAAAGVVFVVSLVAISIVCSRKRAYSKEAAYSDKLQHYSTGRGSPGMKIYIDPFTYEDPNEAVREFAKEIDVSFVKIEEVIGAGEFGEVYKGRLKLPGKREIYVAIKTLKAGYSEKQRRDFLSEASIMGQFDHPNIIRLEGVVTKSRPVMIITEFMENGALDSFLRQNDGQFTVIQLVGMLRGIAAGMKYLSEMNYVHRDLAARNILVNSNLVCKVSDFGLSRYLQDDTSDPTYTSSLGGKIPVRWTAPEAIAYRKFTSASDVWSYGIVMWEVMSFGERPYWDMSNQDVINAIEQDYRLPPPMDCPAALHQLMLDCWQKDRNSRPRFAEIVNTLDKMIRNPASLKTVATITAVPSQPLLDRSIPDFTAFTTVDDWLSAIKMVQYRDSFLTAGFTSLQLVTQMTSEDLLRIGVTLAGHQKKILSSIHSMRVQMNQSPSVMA
FLAG-tagged EphB1 Y502E (Q8CBF3, form named): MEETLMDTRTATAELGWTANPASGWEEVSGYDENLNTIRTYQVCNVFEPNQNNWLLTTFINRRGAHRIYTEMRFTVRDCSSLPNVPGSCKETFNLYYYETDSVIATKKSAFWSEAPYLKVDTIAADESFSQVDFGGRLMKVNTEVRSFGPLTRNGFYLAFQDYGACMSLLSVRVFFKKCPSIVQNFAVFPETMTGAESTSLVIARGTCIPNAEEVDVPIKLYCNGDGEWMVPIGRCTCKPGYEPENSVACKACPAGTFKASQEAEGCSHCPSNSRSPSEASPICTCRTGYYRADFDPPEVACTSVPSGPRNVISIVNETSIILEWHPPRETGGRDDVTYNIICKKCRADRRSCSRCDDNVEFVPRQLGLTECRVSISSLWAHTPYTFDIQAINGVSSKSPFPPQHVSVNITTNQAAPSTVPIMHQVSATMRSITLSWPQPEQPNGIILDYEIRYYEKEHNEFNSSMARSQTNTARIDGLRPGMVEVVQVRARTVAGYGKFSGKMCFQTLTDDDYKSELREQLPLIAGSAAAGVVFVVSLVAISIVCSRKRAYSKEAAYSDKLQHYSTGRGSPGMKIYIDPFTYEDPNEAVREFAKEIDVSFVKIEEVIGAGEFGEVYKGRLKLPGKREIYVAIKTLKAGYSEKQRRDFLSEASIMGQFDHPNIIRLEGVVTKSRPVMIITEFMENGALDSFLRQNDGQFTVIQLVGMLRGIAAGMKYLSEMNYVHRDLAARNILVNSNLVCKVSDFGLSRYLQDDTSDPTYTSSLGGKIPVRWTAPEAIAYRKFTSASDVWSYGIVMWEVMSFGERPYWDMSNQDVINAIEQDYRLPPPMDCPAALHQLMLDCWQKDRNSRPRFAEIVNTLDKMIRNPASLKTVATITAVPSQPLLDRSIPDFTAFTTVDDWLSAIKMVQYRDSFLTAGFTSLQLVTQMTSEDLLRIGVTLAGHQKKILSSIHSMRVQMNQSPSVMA

[5] = target: FLAG-tagged EphB1 wild type (UniProt Q8CBF3); experiment: as above

binding [1] | binding [2] | binding [3] | binding [4] | binding [5] | Substance
binds | – | – | – | – | FLAG-tagged EphB1 Y502F (from UniProt Q8CBF3 18-984) (receptor)
binds | – | – | – | – | FLAG-tagged EphB1 Y502E (from UniProt Q8CBF3 18-984) (receptor)
– | binds | binds | binds | binds | GluN2B-containing NMDAR (HA-GluN1 co-expressed with GluN2B) (from UniProt P35439 19-938; Q00960 27-1482) (complex)
binds | – | – | – | – | FLAG-tagged EphB1 wild type (from UniProt Q8CBF3 18-984) (receptor)
